# From the supplement of paper PMC10849652
# Sequences of proteins named here, by UniProt entry; tags and fusion partners are left off. A change or cut given only in a name is not applied to a line headed by its entry.
# UniProt P00505: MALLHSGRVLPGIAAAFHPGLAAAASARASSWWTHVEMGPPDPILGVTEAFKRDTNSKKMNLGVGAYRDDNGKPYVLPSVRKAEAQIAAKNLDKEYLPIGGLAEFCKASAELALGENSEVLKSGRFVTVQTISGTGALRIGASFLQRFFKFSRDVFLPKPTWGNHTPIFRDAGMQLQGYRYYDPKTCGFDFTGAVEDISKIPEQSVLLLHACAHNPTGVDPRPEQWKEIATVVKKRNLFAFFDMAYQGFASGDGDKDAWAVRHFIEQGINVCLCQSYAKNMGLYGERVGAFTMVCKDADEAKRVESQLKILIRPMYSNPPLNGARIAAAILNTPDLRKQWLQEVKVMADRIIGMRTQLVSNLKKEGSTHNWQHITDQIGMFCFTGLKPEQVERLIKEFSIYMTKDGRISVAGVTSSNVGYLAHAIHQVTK
# UniProt Q9P107: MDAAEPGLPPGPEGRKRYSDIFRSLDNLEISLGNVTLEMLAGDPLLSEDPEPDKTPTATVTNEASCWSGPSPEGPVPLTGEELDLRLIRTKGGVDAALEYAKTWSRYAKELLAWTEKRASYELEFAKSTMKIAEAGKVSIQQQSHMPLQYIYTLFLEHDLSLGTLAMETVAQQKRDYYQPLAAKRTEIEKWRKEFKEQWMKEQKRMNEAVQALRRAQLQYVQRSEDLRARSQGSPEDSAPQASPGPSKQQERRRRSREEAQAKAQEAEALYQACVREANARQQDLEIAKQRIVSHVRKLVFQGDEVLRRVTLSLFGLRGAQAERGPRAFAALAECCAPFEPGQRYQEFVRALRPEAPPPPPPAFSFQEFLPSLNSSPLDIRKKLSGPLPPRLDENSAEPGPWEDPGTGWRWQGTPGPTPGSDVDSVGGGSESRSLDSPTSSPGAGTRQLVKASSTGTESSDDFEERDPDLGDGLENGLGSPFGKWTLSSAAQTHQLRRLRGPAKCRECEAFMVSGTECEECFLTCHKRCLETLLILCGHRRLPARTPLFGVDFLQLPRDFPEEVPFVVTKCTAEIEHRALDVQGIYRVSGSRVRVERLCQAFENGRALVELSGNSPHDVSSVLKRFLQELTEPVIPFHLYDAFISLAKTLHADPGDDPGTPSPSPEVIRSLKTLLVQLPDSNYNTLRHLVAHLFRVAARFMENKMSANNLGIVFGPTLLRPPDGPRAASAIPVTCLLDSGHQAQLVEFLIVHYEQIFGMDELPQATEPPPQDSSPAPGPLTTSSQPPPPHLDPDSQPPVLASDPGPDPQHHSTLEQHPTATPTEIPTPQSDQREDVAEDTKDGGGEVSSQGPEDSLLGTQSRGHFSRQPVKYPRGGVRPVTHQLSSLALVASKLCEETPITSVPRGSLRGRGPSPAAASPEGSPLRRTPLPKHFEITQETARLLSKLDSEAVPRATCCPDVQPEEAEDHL
# UniProt Q8IW92: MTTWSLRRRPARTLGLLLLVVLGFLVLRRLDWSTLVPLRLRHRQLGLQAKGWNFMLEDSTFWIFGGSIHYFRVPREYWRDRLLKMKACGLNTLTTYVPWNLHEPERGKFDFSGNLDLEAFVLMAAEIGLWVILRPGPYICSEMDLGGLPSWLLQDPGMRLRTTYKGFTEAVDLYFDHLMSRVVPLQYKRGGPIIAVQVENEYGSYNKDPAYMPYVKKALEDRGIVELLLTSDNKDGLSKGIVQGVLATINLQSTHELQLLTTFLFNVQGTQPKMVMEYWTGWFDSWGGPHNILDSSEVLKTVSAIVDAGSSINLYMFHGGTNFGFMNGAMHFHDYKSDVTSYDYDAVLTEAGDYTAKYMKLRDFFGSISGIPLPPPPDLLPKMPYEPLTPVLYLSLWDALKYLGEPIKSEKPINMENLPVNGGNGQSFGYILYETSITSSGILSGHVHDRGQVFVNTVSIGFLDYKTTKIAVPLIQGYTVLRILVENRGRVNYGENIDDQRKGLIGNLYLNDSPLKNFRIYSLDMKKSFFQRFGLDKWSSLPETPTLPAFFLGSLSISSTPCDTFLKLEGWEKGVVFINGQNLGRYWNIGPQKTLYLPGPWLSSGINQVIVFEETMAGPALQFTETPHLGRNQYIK
# UniProt Q92805: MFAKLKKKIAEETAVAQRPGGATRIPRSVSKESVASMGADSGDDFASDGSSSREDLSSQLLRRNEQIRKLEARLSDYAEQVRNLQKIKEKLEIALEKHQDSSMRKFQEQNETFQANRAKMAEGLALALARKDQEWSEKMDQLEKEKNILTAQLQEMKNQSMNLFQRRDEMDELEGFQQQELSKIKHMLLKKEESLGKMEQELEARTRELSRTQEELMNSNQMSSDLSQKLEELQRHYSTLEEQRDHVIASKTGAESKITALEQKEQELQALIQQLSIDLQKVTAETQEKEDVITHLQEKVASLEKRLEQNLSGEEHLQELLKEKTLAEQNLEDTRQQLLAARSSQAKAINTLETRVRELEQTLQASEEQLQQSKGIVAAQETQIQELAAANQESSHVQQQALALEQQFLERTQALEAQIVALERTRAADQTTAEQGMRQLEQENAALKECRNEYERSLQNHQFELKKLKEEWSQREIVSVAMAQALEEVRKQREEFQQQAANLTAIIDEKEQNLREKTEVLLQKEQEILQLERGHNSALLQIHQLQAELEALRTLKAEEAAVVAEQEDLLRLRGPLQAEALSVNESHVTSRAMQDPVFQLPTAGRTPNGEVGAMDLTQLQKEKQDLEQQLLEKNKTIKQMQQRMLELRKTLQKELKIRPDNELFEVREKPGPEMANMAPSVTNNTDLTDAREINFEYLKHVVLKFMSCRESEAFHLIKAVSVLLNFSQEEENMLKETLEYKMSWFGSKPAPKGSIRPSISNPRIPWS
# UniProt Q9Y2X7: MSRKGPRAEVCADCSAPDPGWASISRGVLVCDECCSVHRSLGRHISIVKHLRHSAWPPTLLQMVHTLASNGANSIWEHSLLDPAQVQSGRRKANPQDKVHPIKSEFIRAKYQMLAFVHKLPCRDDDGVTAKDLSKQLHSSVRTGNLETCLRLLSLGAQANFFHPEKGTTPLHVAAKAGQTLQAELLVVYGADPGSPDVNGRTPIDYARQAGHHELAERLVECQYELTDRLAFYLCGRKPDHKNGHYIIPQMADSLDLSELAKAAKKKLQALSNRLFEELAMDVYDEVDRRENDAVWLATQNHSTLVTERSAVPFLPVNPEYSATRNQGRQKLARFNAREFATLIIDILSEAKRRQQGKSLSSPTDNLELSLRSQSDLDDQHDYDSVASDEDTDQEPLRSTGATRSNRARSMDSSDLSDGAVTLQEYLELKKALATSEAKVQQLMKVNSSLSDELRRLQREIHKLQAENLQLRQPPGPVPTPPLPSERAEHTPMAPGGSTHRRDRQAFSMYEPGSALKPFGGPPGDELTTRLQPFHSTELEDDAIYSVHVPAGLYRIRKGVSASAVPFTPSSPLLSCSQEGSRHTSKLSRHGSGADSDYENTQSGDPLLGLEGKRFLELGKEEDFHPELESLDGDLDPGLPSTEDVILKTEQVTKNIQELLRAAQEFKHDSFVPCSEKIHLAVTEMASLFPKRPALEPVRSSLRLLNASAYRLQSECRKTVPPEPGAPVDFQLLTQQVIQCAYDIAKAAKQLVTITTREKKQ
# UniProt O75223: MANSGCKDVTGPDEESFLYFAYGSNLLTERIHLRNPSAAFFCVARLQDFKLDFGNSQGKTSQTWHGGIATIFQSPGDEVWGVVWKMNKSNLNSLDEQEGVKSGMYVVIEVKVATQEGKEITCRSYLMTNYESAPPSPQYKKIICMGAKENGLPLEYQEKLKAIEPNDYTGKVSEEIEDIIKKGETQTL
# UniProt P15586: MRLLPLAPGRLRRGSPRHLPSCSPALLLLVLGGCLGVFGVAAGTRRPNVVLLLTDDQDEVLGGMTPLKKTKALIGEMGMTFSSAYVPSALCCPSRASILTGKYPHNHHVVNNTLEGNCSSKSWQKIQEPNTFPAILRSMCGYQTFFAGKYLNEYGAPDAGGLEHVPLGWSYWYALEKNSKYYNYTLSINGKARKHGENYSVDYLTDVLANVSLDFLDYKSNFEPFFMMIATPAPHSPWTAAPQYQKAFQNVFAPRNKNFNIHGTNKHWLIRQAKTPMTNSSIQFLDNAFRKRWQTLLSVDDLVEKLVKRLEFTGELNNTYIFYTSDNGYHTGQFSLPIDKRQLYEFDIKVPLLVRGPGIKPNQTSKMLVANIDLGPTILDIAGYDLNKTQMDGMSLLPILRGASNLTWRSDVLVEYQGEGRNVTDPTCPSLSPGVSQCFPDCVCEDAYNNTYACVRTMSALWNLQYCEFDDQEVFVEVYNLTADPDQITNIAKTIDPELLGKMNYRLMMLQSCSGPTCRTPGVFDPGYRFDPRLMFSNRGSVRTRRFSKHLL
# UniProt Q92820: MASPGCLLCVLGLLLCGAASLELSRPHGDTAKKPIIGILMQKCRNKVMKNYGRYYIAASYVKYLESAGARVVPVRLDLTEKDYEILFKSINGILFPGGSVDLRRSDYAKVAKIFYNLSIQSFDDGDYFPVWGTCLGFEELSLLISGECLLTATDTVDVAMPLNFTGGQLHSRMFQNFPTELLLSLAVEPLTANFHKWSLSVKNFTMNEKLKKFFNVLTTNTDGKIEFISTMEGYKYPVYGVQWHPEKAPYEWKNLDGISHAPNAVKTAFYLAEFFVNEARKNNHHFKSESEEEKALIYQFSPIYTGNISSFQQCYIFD
# UniProt Q9BYB4: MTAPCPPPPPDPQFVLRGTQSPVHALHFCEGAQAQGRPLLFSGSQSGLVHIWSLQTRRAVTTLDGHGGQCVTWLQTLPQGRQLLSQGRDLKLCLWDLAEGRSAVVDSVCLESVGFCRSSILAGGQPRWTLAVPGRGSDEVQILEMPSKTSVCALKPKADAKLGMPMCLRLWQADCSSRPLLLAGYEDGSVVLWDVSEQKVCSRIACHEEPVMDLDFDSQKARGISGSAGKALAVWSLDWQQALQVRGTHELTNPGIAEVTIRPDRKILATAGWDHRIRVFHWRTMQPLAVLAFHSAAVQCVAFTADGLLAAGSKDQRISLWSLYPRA
# UniProt P62879, whole entry, looked up: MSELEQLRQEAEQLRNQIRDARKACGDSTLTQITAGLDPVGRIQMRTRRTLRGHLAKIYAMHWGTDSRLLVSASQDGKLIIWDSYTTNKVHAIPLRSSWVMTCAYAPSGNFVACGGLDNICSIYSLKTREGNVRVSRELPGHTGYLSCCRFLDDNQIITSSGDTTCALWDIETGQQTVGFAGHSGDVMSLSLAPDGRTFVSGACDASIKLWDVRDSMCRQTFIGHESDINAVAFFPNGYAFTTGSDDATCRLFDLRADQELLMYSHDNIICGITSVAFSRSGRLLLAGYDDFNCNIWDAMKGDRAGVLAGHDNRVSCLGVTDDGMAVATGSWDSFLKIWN
# UniProt O14908: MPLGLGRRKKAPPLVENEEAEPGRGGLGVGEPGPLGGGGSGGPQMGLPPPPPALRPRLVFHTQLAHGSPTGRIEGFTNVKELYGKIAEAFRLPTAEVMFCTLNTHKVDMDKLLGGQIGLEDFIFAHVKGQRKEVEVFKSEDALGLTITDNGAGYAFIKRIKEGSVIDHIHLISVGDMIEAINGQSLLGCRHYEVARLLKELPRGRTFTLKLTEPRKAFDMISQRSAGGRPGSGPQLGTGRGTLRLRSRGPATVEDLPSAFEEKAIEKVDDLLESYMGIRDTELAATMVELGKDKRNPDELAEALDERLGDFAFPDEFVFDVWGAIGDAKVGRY
# UniProt Q9UKD1: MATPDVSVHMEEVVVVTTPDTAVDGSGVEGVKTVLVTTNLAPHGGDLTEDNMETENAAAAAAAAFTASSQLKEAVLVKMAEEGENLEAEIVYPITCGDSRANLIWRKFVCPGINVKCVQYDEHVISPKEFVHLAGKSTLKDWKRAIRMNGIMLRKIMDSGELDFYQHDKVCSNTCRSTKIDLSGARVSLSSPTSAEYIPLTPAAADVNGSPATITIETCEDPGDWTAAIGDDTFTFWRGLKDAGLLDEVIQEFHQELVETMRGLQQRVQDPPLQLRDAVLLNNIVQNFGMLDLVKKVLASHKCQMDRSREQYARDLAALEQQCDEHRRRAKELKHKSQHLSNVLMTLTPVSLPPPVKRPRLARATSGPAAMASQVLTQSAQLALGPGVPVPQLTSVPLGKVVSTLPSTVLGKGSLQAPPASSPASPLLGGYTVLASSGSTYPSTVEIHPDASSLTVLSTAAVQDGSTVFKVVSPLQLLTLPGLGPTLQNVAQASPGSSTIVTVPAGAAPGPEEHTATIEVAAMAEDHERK
# UniProt Q9Y5P6: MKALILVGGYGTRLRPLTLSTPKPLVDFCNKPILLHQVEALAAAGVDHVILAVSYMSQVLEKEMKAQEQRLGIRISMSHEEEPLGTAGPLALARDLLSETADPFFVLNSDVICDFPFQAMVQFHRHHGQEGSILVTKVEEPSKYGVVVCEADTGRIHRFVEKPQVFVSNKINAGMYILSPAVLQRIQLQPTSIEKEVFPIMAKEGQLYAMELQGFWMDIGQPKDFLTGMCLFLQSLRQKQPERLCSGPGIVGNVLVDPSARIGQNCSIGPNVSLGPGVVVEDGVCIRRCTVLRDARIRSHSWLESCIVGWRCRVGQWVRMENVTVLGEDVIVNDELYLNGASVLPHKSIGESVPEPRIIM
# This is one part of the list.
# Experiments:
# Assay in all cases: log2 fold change, soluble protein after heating vs DMSO (PISA); higher = thermal stabilisation; K562 lysate, 10 uM; active = over 0.2 and 3.5 SD of the protein, either way, in both replicates (recomputed)
# nilotinib = compound: Cc1cn(-c2cc(NC(=O)c3ccc(C)c(Nc4nccc(-c5cccnc5)n4)c3)cc(C(F)(F)F)c2)cn1 [nilotinib]
# Method in brief: (§1)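 A 30 min treatment with 10 μM compound was applied to crude K562 extract at 1 mg/mL protein in PBS pH 7.4 with 1 mM MgCl2. Heating for 3 min spanned 48°C-58°C, after which aliquots were pooled, adjusted to 0.5% NP-40 at 4°C and spun at 21,000xg for 90 min. TMTpro 16plex LC-MS/MS of the supernatant, with channel sums equalised, gave values recorded as log-two fold change in thermal stability against solvent controls, from duplicates.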
# [1] = compound: Cc1nc(Nc2n[nH]c3c2CN(C(=O)N[C@H](CN(C)C)c2ccccc2)C3(C)C)c2sccc2n1
# Method in brief: as §1
# dasatinib = compound: Cc1nc(Nc2ncc(C(=O)Nc3c(C)cccc3Cl)s2)cc(N2CCN(CCO)CC2)n1 [dasatinib]
# Method in brief: as §1
# [2] = compound: Cc1ncc(-c2ccnc(Nc3ccc(S(C)(=O)=O)cc3)n2)n1C(C)C
# Method in brief: as §1
# [3] = compound: Cn1cc(-c2ccc3c(c2)CCN3C(=O)Cc2cccc(C(F)(F)F)c2)c2c(N)ncnc21
# Method in brief: as §1
# quisinostat = compound: Cn1cc(CNCC2CCN(c3ncc(C(=O)NO)cn3)CC2)c2ccccc21 [quisinostat]
# Method in brief: as §1
# tipifarnib = compound: Cn1cncc1[C@@](N)(c1ccc(Cl)cc1)c1ccc2c(c1)c(-c1cccc(Cl)c1)cc(=O)n2C [tipifarnib]
# Method in brief: as §1
# [4] = compound: NC(=O)Nc1cc(-c2cccc(F)c2)sc1C(=O)N[C@H]1CCCNC1
# Method in brief: as §1
# [5] = compound: NC(=O)c1cnc(N[C@@H]2CCCC[C@@H]2N)nc1Nc1cccc(-n2nccn2)c1
# Method in brief: as §1
# [6] = compound: NC1(c2ccc(-c3nc4ccn5c(=O)[nH]nc5c4cc3-c3ccccc3)cc2)CCC1
# Method in brief: as §1
# [7] = compound: NCC(=O)Nc1ccc(-n2nc(C(F)(F)F)cc2-c2ccc3c(ccc4ccccc43)c2)cc1
# Method in brief: as §1
# vorinostat = compound: O=C(CCCCCCC(=O)Nc1ccccc1)NO [vorinostat]
# Method in brief: as §1
# silmitasertib = compound: O=C(O)c1ccc2c(c1)nc(Nc1cccc(Cl)c1)c1ccncc12 [silmitasertib]
# Method in brief: as §1
# [8] = compound: O=C1NC(=O)C(c2cnc3ccccn23)=C1c1cn2c3c(cc(F)cc13)CN(C(=O)N1CCCCC1)CC2
# Method in brief: as §1
# entospletinib = compound: c1cn2cc(-c3ccc4cn[nH]c4c3)nc(Nc3ccc(N4CCOCC4)cc3)c2n1 [entospletinib]
# Method in brief: as §1
Target,log2 fold change (nilotinib),log2 fold change [1],log2 fold change (dasatinib),log2 fold change [2],log2 fold change [3],log2 fold change (quisinostat),log2 fold change (tipifarnib),log2 fold change [4],log2 fold change [5],log2 fold change [6],log2 fold change [7],log2 fold change (vorinostat),log2 fold change (silmitasertib),log2 fold change [8],log2 fold change (entospletinib)
GMPR (UniProt P36959),inactive: -0.012,inactive: 0.012,inactive: -0.031,inactive: 0,inactive: 0.021,inactive: 0.063,inactive: 0.019,inactive: 0.016,inactive: 0.009,inactive: 0.017,inactive: 0,inactive: 0.144,inactive: -0.006,inactive: -0.017,inactive: 0.03
GOT2 (UniProt P00505),inactive: 0.06,inactive: -0.006,inactive: 0.04,inactive: -0.005,inactive: -0.006,inactive: 0.011,inactive: 0.028,inactive: -0.027,inactive: -0.01,inactive: 0.017,inactive: -0.014,inactive: 0.157,inactive: -0.006,inactive: 0.012,inactive: 0.009
GMIP (UniProt Q9P107),inactive: -0.094,inactive: -0.041,inactive: -0.097,inactive: -0.058,inactive: 0.023,inactive: -0.012,inactive: -0.017,inactive: 0.034,inactive: -0.025,inactive: -0.022,inactive: -0.018,active: -0.302,inactive: 0.058,inactive: 0.021,inactive: -0.038
GNPDA2 (UniProt Q8TDQ7),inactive: -0.027,inactive: 0,inactive: -0.01,inactive: -0.007,inactive: 0.014,inactive: 0.031,inactive: -0.081,inactive: 0.004,inactive: 0.002,inactive: 0.038,inactive: -0.014,inactive: 0.05,inactive: -0.018,inactive: 0.019,inactive: -0.007
GNL2 (UniProt Q13823),inactive: -0.001,inactive: 0.017,inactive: 0.029,inactive: -0.04,inactive: 0.003,inactive: -0.025,inactive: -0.007,inactive: 0.039,inactive: 0.053,inactive: -0.01,inactive: -0.041,inactive: -0.02,inactive: 0.03,inactive: -0.03,inactive: 0.005
GLB1L2 (UniProt Q8IW92),inactive: 0.063,inactive: 0.035,inactive: -0.017,inactive: 0.006,inactive: 0.006,inactive: -0.015,inactive: 0.049,inactive: -0.032,inactive: -0.045,inactive: 0.028,inactive: 0.018,inactive: -0.023,inactive: -0.045,inactive: -0.029,inactive: -0.012
GOLPH3L (UniProt Q9H4A5),inactive: -0.045,inactive: 0.033,inactive: 0,inactive: -0.006,inactive: 0.01,inactive: -0.026,inactive: 0.018,inactive: 0.094,inactive: 0.013,inactive: -0.039,inactive: -0.061,inactive: -0.035,inactive: -0.002,inactive: 0.047,inactive: 0.048
GOLGA1 (UniProt Q92805),inactive: 0.033,inactive: -0.009,inactive: -0.026,inactive: -0.015,inactive: 0.022,inactive: -0.073,inactive: -0.099,inactive: 0.042,inactive: 0.106,inactive: 0.004,inactive: 0.048,inactive: 0.07,inactive: 0.01,inactive: -0.076,inactive: -0.014
GIT1 (UniProt Q9Y2X7),inactive: 0.03,inactive: -0.062,inactive: -0.05,inactive: -0.042,inactive: 0.036,inactive: -0.045,inactive: -0.086,inactive: 0.035,inactive: -0.007,inactive: -0.026,inactive: -0.043,active: -0.32,inactive: 0.009,inactive: 0.006,inactive: -0.005
GOLGA2 (UniProt Q08379),inactive: 0.003,inactive: -0.037,inactive: -0.063,inactive: -0.003,inactive: 0.01,inactive: -0.01,inactive: -0.013,inactive: -0.02,inactive: 0.039,inactive: -0.011,inactive: 0,inactive: -0.089,inactive: 0,inactive: 0.003,inactive: -0.002
GPATCH11 (UniProt Q8N954),inactive: -0.028,inactive: 0.04,inactive: 0.018,inactive: 0.011,inactive: 0.012,inactive: -0.012,inactive: -0.031,inactive: 0.012,inactive: 0.009,inactive: 0.013,inactive: 0.005,inactive: 0.091,inactive: -0.025,inactive: -0.04,inactive: -0.01
GGCT (UniProt O75223),inactive: 0.052,inactive: 0.037,inactive: 0.008,inactive: 0.028,inactive: -0.002,inactive: 0.051,inactive: 0.023,inactive: -0.013,inactive: -0.005,inactive: 0.002,inactive: 0.004,inactive: 0.124,inactive: -0.017,inactive: -0.016,inactive: -0.014
GNPNAT1 (UniProt Q96EK6),inactive: 0.061,inactive: 0.004,inactive: -0.065,inactive: 0.007,inactive: -0.046,inactive: 0.069,inactive: -0.007,inactive: -0.051,inactive: -0.028,inactive: -0.043,inactive: -0.023,inactive: 0.129,inactive: -0.045,inactive: -0.031,inactive: 0.047
GNS (UniProt P15586),inactive: 0.012,inactive: -0.011,inactive: 0.008,inactive: -0.06,inactive: 0.003,inactive: 0.007,inactive: 0.036,inactive: 0.005,inactive: 0.004,inactive: 0.006,inactive: 0.019,inactive: 0.122,inactive: -0.013,inactive: 0.002,inactive: 0.005
GGH (UniProt Q92820),inactive: 0.049,inactive: 0.065,inactive: -0.003,inactive: 0.107,inactive: -0.037,inactive: 0.025,inactive: 0.004,inactive: 0.015,inactive: -0.02,inactive: 0.015,inactive: 0.01,inactive: 0.209,inactive: -0.034,inactive: 0.028,inactive: 0.018
GNB1L (UniProt Q9BYB4),inactive: 0.013,inactive: 0.007,inactive: 0.063,inactive: -0.035,inactive: 0,inactive: -0.031,inactive: -0.013,inactive: -0.025,inactive: -0.026,inactive: -0.015,inactive: -0.002,inactive: 0.025,inactive: 0.015,inactive: 0.003,inactive: 0.063
GNB2 (UniProt P62879),inactive: 0.011,inactive: 0.01,inactive: 0.001,inactive: 0.015,inactive: 0.001,inactive: 0.001,inactive: -0.031,inactive: 0.012,inactive: -0.009,inactive: 0.023,inactive: 0.019,inactive: 0.032,inactive: -0.019,inactive: -0.036,inactive: -0.006
GIPC1 (UniProt O14908),inactive: 0.006,inactive: 0.011,inactive: 0.071,inactive: -0.014,inactive: -0.011,inactive: 0.046,inactive: 0.042,inactive: -0.014,inactive: 0.026,inactive: -0.021,inactive: -0.036,inactive: 0.029,inactive: 0.028,inactive: -0.034,inactive: 0.004
GMEB2 (UniProt Q9UKD1),inactive: 0.023,inactive: -0.076,inactive: -0.104,inactive: -0.074,inactive: 0.006,inactive: 0.029,inactive: 0.006,inactive: 0.026,inactive: -0.06,inactive: -0.096,inactive: 0.01,inactive: 0.005,inactive: -0.022,inactive: 0.025,inactive: -0.027
GMPPB isoform 2 (UniProt Q9Y5P6),inactive: -0.017,inactive: 0.023,inactive: -0.066,inactive: -0.011,inactive: 0.003,inactive: -0.025,inactive: 0.006,inactive: 0.014,inactive: -0.021,inactive: 0.015,inactive: 0.022,inactive: -0.089,inactive: -0.011,inactive: -0.006,inactive: -0.028
GPS1 isoform 6 (UniProt Q13098),inactive: 0.015,inactive: 0.006,inactive: 0.02,inactive: 0.027,inactive: -0.003,inactive: -0.035,inactive: 0.008,inactive: 0,inactive: 0.014,inactive: -0.033,inactive: -0.007,inactive: 0.054,inactive: -0.011,inactive: -0.011,inactive: -0.019

# Record cards (already shown). Values in the order: log2 fold change (nilotinib) | log2 fold change [1] | log2 fold change (dasatinib) | log2 fold change [2] | log2 fold change [3] | log2 fold change (quisinostat) | log2 fold change (tipifarnib) | log2 fold change [4] | log2 fold change [5] | log2 fold change [6] | log2 fold change [7] | log2 fold change (vorinostat) | log2 fold change (silmitasertib) | log2 fold change [8] | log2 fold change (entospletinib)
# GIPC1 (UniProt O14908) as listed: inactive: 0.006 | inactive: 0.011 | inactive: 0.071 | inactive: -0.014 | inactive: -0.011 | inactive: 0.046 | inactive: 0.042 | inactive: -0.014 | inactive: 0.026 | inactive: -0.021 | inactive: -0.036 | inactive: 0.029 | inactive: 0.028 | inactive: -0.034 | inactive: 0.004
# GPATCH11 (UniProt Q8N954) as listed: inactive: -0.028 | inactive: 0.04 | inactive: 0.018 | inactive: 0.011 | inactive: 0.012 | inactive: -0.012 | inactive: -0.031 | inactive: 0.012 | inactive: 0.009 | inactive: 0.013 | inactive: 0.005 | inactive: 0.091 | inactive: -0.025 | inactive: -0.04 | inactive: -0.01
